This is an account of results in article PMC7819943, “Rice protein-binding microarrays: a tool to detect cis-acting elements near promoter regions in rice”.

Chains of the proteins cited; added tags and fusions are not shown.
UniProt Q0JBA9, entry or part of it: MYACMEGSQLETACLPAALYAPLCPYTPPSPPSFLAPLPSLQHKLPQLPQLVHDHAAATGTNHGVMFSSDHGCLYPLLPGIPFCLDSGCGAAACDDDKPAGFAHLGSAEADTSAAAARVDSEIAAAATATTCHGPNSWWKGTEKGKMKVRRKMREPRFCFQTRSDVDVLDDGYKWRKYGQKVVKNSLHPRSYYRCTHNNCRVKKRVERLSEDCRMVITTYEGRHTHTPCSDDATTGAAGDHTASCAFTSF

This is one part of the list.

This assay has as its target OsWRKY34 (Oryza sativa, UniProt Q0JBA9 1-250). As to the kind of experiment: protein-binding microarray (RPBM); PBS, 2% BSA, 51.3 ng/ul salmon testes DNA, 50 uM zinc acetate, 200 nM TF, 25 C, 1 h; high values mean tight binding. Conditions: protein: recombinant; tags: N-terminal polyhistidine and DsRed monomer fusion (pET32a); label: CyDye5-dUTP incorporated in the synthesized complementary strand; 3' TTTTT single-stranded linker to array surface; dsDNA, one strand shown. An outline of the steps:
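In PBS with 2% BSA, salmon testes DNA and 50 µM zinc acetate, 200 nM protein was incubated on a custom Agilent array at 25 °C for 1 h and then washed off. The array had been made double-stranded by primer extension with Cy5-dUTP and blocked with 2% BSA. The proteins were transcription factors fused N-terminally to polyhistidine and DsRed, expressed in E. coli BL21-CodonPlus and purified on Ni–NTA. The binding signal is per-feature fluorescence intensity (arbitrary units) from an Axon 4000B scanner.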
For the sequence “TTCTTTTCTTTCTCTATATTTTTTTCATCAGTTACTTCTACGGAGTCACCTAGTGCAG”, the binding signal is 8920 fluorescence intensity (a.u.).
Under “TCCCATGAGTGCTTTGTTCATGACTTTCAGGTCTTCTCTCCGGAGTCACCTAGTGCAG” stands 9670 fluorescence intensity (a.u.).
Under “TGCTGGCCGTGTTGCCACCAAGCTCGCCGAGGACCGTTGACGGAGTCACCTAGTGCAG” stands 8440 fluorescence intensity (a.u.); under “GGGAAACCGTTGCTCGTTGGCGCCAATTTTTCCCGCCATTCGGAGTCACCTAGTGCAG”, 9210 fluorescence intensity (a.u.).
Under “AAAGTTTCTGTTGCACTATCCAAAACACACGTCAGTTTATCGGAGTCACCTAGTGCAG” stands 9530 fluorescence intensity (a.u.); under “TTGTTGCAATAACTGTCCAGGATGCTATTGTTCCACTTGTCGGAGTCACCTAGTGCAG”, 8530 fluorescence intensity (a.u.); under “TTATCACTCCTCTTTTTTAATTGGCTATTGTTAATTATATCGGAGTCACCTAGTGCAG”, 8920 fluorescence intensity (a.u.).
Regarding “TACATTTTTTTATTTTCTAGTTACATGGGGTAGCATATAGCGGAGTCACCTAGTGCAG”, the binding signal is 8700 fluorescence intensity (a.u.).
Turning to “CTACTCCGCTCCGCCGTCGCTGTTGCTCTCTGATCCCTAGCGGAGTCACCTAGTGCAG”, the binding signal was 11800 fluorescence intensity (a.u.).
Under “GAGCATTTGGTATTTGTTCTTCATCTCTGCTTCCGCCATGCGGAGTCACCTAGTGCAG” stands 8220 fluorescence intensity (a.u.).
Consider “ACCATGCACCAGTTCTGCATAGTTCCCATGTTGCAGTTCTCGGAGTCACCTAGTGCAG”, for which the binding signal was 8490 fluorescence intensity (a.u.).
For the sequence “TTAATCACACACGCCTGCTTAATTAATCATCTCCTATCACCGGAGTCACCTAGTGCAG”, the binding signal is 9010 fluorescence intensity (a.u.).
In the case of “GCCGCTACTCGCCTTCGCTTCCGCCTTCGTTGCTGGTTGCCGGAGTCACCTAGTGCAG” it was 9450 fluorescence intensity (a.u.); in that of “CTACAGCTACCATCCTCTCTGTTCTTTTTTTTAATGTTCCCGGAGTCACCTAGTGCAG”, 12900 fluorescence intensity (a.u.).
In the case of “AACTTTACAATTTTTTTATGTCATCCATGTCACATGTTTTCGGAGTCACCTAGTGCAG” it was 9030 fluorescence intensity (a.u.).
In the case of “CACTCAACACTTAATGTTACGATAATCTGTTACTTGTATGCGGAGTCACCTAGTGCAG” it was 8690 fluorescence intensity (a.u.).
Regarding “GCCCTACTGCCCTTGACACGTCGTCCATCCCATCGAACCGCGGAGTCACCTAGTGCAG”, the binding signal is 10600 fluorescence intensity (a.u.).
Under “CGGCGCCCACCACCACCACCACCACGACCCCGACCTCCGTCGGAGTCACCTAGTGCAG” stands 10800 fluorescence intensity (a.u.).
“CCGCATTTTAATGTATGACGTCATTGACTTTTCGATCAACCGGAGTCACCTAGTGCAG”: the binding signal is 10200 fluorescence intensity (a.u.).
In the case of “AACGGTTGGGCTCATGAAATGACACTATTGGTGGTTGTGACGGAGTCACCTAGTGCAG” it was 8680 fluorescence intensity (a.u.).
Under “AGTATTGTTTTACCGGTGGGGTCTGAATTTCCGAAATTTTCGGAGTCACCTAGTGCAG” stands 9020 fluorescence intensity (a.u.); under “CGTCGTCGTTCTCCCTCCCTCCTCGAGAGTGGCAACAAAACGGAGTCACCTAGTGCAG”, 9110 fluorescence intensity (a.u.).
In the case of “TCACTTCTTGGCCACCGTGCTGCCCGCCGTGGTGACCGACCGGAGTCACCTAGTGCAG” it was 9480 fluorescence intensity (a.u.).
Turning to “CGTCTTCGTCCTTGGCTTCTCCACCGAGCTCACCACAAACCGGAGTCACCTAGTGCAG”, the binding signal is 9080 fluorescence intensity (a.u.).
As to “AATCGCCGCCCGCCACGTGTCGCCTTCCCTTGCACGCCATCGGAGTCACCTAGTGCAG”, the binding signal was 8950 fluorescence intensity (a.u.).
In the case of “AGCTATGGCAGCTGCTTCTTCCTCGCGCGAACAAATCAATCGGAGTCACCTAGTGCAG” it was 8610 fluorescence intensity (a.u.); in that of “AAAACCACCTGTAACATAACAGAGTTACTATTGCTTTTTCCGGAGTCACCTAGTGCAG”, 8590 fluorescence intensity (a.u.).
Turning to “AGGGATTTTAAGTTTTTGCTTGTATTGTTTGATCACTCATCGGAGTCACCTAGTGCAG”, the binding signal is 8270 fluorescence intensity (a.u.).
In the case of “CCAGGAATTTCCATCCACCGGTTTCTTTTTCTCCCCTGAACGGAGTCACCTAGTGCAG”, the binding signal was 9400 fluorescence intensity (a.u.).
On to “TGTTCATTTTGAATATCTGTACATACTGCTGGGTTATGACCGGAGTCACCTAGTGCAG”, for which the binding signal was 8310 fluorescence intensity (a.u.).
Turning to “TGCTGTGGTGTGGTGTGGTGTGAATTTTGTTGATTGGTCGCGGAGTCACCTAGTGCAG”, the binding signal is 8750 fluorescence intensity (a.u.).
In the case of “TTGCATACACATGGTCATCTCCCATTTCACCTGCAAGCAACGGAGTCACCTAGTGCAG” it was 9870 fluorescence intensity (a.u.); in that of “TCTAAACATCGGCGGCACATGGCTTCCGCCACACTTGACCCGGAGTCACCTAGTGCAG”, 8820 fluorescence intensity (a.u.).
Under “ACCATCTCTCTCTCTCTCTCTGCATGCATATCTTCTCCTCCGGAGTCACCTAGTGCAG” stands 14300 fluorescence intensity (a.u.); under “GATGCATGCCTTCTTGTCTGTCATACGTCTCGTGCAATCGCGGAGTCACCTAGTGCAG”, 9090 fluorescence intensity (a.u.); under “AGTCTAGGTTCTTCCGTTCTTGTGTTCATCGTAGAATTTTCGGAGTCACCTAGTGCAG”, 10400 fluorescence intensity (a.u.).
As to “GCCGCCACCGCCACCGCCGCCGCCGCCGCATCCTCCTCCTCGGAGTCACCTAGTGCAG”, the binding signal is 9140 fluorescence intensity (a.u.).
In the case of “TCTTCAGCTCCACAGTGTTTATCGATGTTTGCAATATTTCCGGAGTCACCTAGTGCAG” it was 10100 fluorescence intensity (a.u.); in that of “CGTAATTAAGGCTCTTATCCCCTCAGCATTCATCTTTGACCGGAGTCACCTAGTGCAG”, 9050 fluorescence intensity (a.u.).
In the case of “TCGAATTTATATGTACTATTTTTTGGGATTTCTCGGGTATCGGAGTCACCTAGTGCAG” it was 8960 fluorescence intensity (a.u.); in that of “CTTGTTTTTCTACCTCCTGCCCTAAATGCCAAGTGTTAACCGGAGTCACCTAGTGCAG”, 9050 fluorescence intensity (a.u.).
Under “AAACACCACTTTTCCATACTTAAATTTAATGCTACTTATCCGGAGTCACCTAGTGCAG” stands 8530 fluorescence intensity (a.u.).
